Laboratory results taken from patent US20060111324A1, “(+)-Ttrans-isomers of (1-phosphonomethoxy-2-alkylcyclopropyl)methyl nucleoside derivatives, process for the preparation of stereoisomers thereof, and use of antiviral agents thereof” (LG Life Sciences, priority 2002, published 2006).
For at least one compound, name, drawing or mass did not settle the structure.

Test system: HBV
Assay: Pharmacological test on HBV transgenic mouse (serum HBV DNA by PCR)
Assay type: in vivo
Settings: HBV transgenic mice, orally administrated at 1 mpk or less

CC1CC1(Cn1cnc2cnc(N)nc21)OCP(=O)(OCOC(=O)C(C)(C)C)OCOC(=O)C(C)(C)C [Compound 6, (1S,2S)-3-[({1-[(2-amino-9H-purine-9-yl)methyl]-2-methylcyclopropyl}oxy)methyl]-8,8-dimethyl-3,7-dioxo-2,4,6-trioxa-3λ^5-phosphanon-1-yl-pivalate]
pharmacological effect (in words): very excellent pharmacological effect
